± gives the standard deviation of the averaged measurements. The list shows a part of the results. Single values are uncertain here, since repeats match poorly.

Protein sequences, listed by entry. Tags and fused reporters are not part of them.
UniProt Q15717, whole entry: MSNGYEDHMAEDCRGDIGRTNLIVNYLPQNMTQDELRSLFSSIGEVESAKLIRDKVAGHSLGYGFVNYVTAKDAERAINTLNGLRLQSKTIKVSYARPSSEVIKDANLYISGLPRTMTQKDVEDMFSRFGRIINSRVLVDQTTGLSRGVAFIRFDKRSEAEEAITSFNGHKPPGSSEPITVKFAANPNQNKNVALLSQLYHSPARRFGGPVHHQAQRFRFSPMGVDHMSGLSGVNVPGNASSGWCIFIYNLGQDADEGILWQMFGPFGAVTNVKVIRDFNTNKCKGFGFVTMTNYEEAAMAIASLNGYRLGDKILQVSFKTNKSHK

This assay concerns the target HuR (ELAVL1) - TNFalpha ARE RNA complex (UniProt Q15717). In words: AlphaScreen HuR-RNA complex signal Z-score relative to positive (Bi-TNF, DMSO) controls (Z-score (SD units of positive control)); higher = more complex signal. Particulars: screen stage: primary screen; compound concentration: 25 nM. (In Alpha technology, singlet oxygen from a donor bead excites a nearby acceptor bead.)
Turning to `C=C[C@H]1CN2CC[C@H]1C[C@@H]2[C@@H](O)c1ccnc2ccc(OC)cc12`, the “AlphaScreen HuR-RNA complex signal Z-score” value worked out at 5.21.
For the compound `Cc1cccc(C)c1NC(=O)C1CCCCN1C` (stereo not given), the “AlphaScreen HuR-RNA complex signal Z-score” value came to 1.11.
The figure for `COc1ccc(C2C(=O)c3ccccc3C2=O)cc1` is -0.215; for `CN(C)c1ccc2nc3ccc(=[N+](C)C)cc-3sc2c1` it is 1.02; for `COc1cc(/C=C/C(=O)N2CCC=CC2=O)cc(OC)c1OC` it is -0.537.
As to `COc1cc(OC)c2c(OC)c(-c3ccc4c(c3)OCO4)c(=O)oc2c1`, the “AlphaScreen HuR-RNA complex signal Z-score” value was 1.03.
Take `CN1C(C(=O)Nc2ccccn2)=C(O)c2sccc2S1(=O)=O`: the “AlphaScreen HuR-RNA complex signal Z-score” value is 1.34.
Then `Cc1ncc([N+](=O)[O-])n1CC(O)CCl` (stereo not given), with 0.113; and `CC(=O)Oc1ccc2c(c1)CC[C@@H]1[C@@H]2CC[C@]2(C)[C@@H](OC(C)=O)CC[C@@H]12`, with 2.13; and `CCC(=O)OC1[C@@H]2CC3=C4CC(=O)O[C@@H](c5ccoc5)[C@]4(C)CCC3[C@@](C)(C2=O)[C@@H](CC(=O)OC)C1(C)C` (stereo not given in full), with 0.872.
`COC(=O)C[C@H]1C(C)(C)C(=O)[C@@H]2CC3=C(CC[C@]4(C)C3=CC(=O)O[C@H]4c3ccoc3)[C@@]1(C)C2=O`: the “AlphaScreen HuR-RNA complex signal Z-score” value was -4.9.
The figure for `O=C(Nc1ccccc1)c1ccccc1O` is 0.312; for `C=C1C(=O)[C@]23[C@H](CC[C@@H]1[C@@H]2O)[C@]12CO[C@@]3(O)[C@H](O)[C@H]1C(C)(C)CC[C@@H]2O` it is 1.44.
Then `COc1cc(O)cc(O)c1C(C)=O`, with 0.173; and `CS(=O)(=O)c1ccc(C2=C(c3ccccc3)C(=O)OC2)cc1`, with 1.62.
The figure for `COc1ccc2c(c1OC)OC[C@@H](c1ccc(OC)c(OC)c1OC)C2` is 2.2.
Turning to `CN(C)CCC=C1c2ccccc2CCc2ccccc21`, the “AlphaScreen HuR-RNA complex signal Z-score” value worked out at 0.0119.
Then `COc1cc(Cc2cnc(N)nc2N)cc(OC)c1OC`, with -1.07.
The figure for `C=CCc1ccc(OC(=O)c2ccccc2)c(OC)c1` is 3.03; for `COCC1=C(C(=O)OC(C)OC(=O)OC(C)C)N2C(=O)[C@@H](NC(=O)/C(=N\OC)c3csc(N)n3)[C@H]2SC1` (stereo not given in full) it is 1.32; for `CCN(CC)CCOC(=O)C(c1ccccc1)C1CCCCC1` (stereo not given) it is 4.13.
Then `CC(C)CCCC(C)C1CCC2C3CCC4CCCCC4(C)C3CCC12C` (stereo not given), with 0.289; and `COc1cc2c(cc1OC)C(=O)C(CC1CCN(Cc3ccccc3)CC1)C2` (stereo not given), with -1.4; and `O=C(CCCN1CCC(O)(c2ccc(Br)cc2)CC1)c1ccc(F)cc1`, with 1.62.
Take `CNCC[C@H](Oc1cccc2ccccc12)c1cccs1`: the “AlphaScreen HuR-RNA complex signal Z-score” value is -0.986.
For the compound `CC1CCC(C(C)C)C(O)C1` (stereo not given), the “AlphaScreen HuR-RNA complex signal Z-score” value came out at 1.27.
Then `CO[C@@]1(NC(=O)Cc2cccs2)C(=O)N2C(C(=O)O)=C(COC(N)=O)CS[C@@H]21`, with 1.93; and `CN1CCC(=C2c3ccccc3CC(=O)c3sccc32)CC1`, with -0.277; and `CC[C@H](CC[C@@H](C)[C@H]1CC[C@H]2[C@@H]3CC=C4C[C@@H](O)CC[C@]4(C)[C@H]3CC[C@]12C)C(C)C` [beta-SITOSTEROL], with 2.17.
In the case of `O=c1ccc2ccccc2[nH]1`, the “AlphaScreen HuR-RNA complex signal Z-score” value turned out to be 3.01.
Then `CCCCC[C@H](CC(=O)O)C(=O)O`, with 2.81; and `CCCN(CCC)C(=O)C(CCC(=O)O)NC(=O)c1ccccc1` (stereo not given), with 0.682; and `O=c1ccc2ccc(O)c(O)c2o1`, with 2.21.
The figure for `O.O.O.O.O=C([O-])CC(O)(CC(=O)[O-])C(=O)[O-].[Li+].[Li+].[Li+]` is 2.16; for `O=C[C@H](O)[C@H](O)CO` it is 1.16; for `N[C@@H](CCC(=O)N[C@@H](CCSC(CC(=O)O)C(=O)O)C(=O)NCC(=O)O)C(=O)O` (stereo not given in full) it is 2.2.
For the compound `COc1cc(-c2coc3cc(OC)c(OC)c(OC)c3c2=O)cc(OC)c1OC`, the “AlphaScreen HuR-RNA complex signal Z-score” value amounted to 3.07.
In the case of `C[C@]12CCC3c4ccc(OC(=O)c5ccccc5)cc4CCC3C1CCC2=O` (stereo not given in full), the “AlphaScreen HuR-RNA complex signal Z-score” value came out at 3.22.
The figure for `Cn1ccnc1S` is 1.43 ± 0.97; for `Oc1ccc(Cl)c2cccnc12` it is -2.85.
Regarding `Nc1c(Br)cc(Br)cc1CN[C@H]1CC[C@H](O)CC1`, the “AlphaScreen HuR-RNA complex signal Z-score” value worked out at 2.77.
The figure for `CC(C)(Sc1cc(C(C)(C)C)c(O)c(C(C)(C)C)c1)Sc1cc(C(C)(C)C)c(O)c(C(C)(C)C)c1` is 0.456; for `CC1(C)CCC[C@]2(C)[C@@H]3[C@H]1[C@@H](O)[C@@]2(C)C[C@H]3O` it is 1.71.
On to `COc1ccc(-c2c(O)c3c(OC)c4c(cc3oc2=O)OC(C)(C)C=C4)cc1`, for which the “AlphaScreen HuR-RNA complex signal Z-score” value is 2.08.
The figure for `CC(=O)NO` is 0.622.
The figure for `CN1CCCN=C1COC(=O)C(O)(c1ccccc1)C1CCCCC1` (stereo not given) is 1.11.
The figure for `CC(C)(S)[C@@H](N)C(=O)O` is 1.93; for `CO[C@H]1C[C@H](O[C@H]2[C@H](C)[C@@H](O[C@@H]3O[C@H](C)C[C@H](N(C)C)[C@H]3OC(C)=O)[C@@H](C)C[C@@]3(CO3)C(=O)[C@H](C)[C@@H](OC(C)=O)[C@@H](C)[C@@H](C)OC(=O)[C@@H]2C)O[C@@H](C)[C@@H]1OC(C)=O` it is 0.171; for `O=C(O)CCCN1C(=O)c2cccc3cccc(c23)C1=O` it is 2.21.
In the case of `COc1ccc(-c2oc3ccccc3c(=O)c2OC)cc1`, the “AlphaScreen HuR-RNA complex signal Z-score” value is 0.301.
Turning to `COc1cc(C/C=C/c2ccccc2)c(OC)cc1O`, the “AlphaScreen HuR-RNA complex signal Z-score” value worked out at 1.73.
Then `O=C1O[C@H](CO)[C@@H](O)[C@H](O)[C@H]1O`, with 1.37; and `C=C1C2CC[C@@]3(C)[C@H](c4ccoc4)OC(=O)C[C@]13O[C@H]1CC(O)C(C)(C)C(CC(=O)OC)[C@@]21C` (stereo partly drawn) [3alpha-HYDROXY-3-DEOXYANGOLENSIC ACID METHYL ESTER], with 1.74.
Regarding `O=C(O)c1ccccc1Nc1ccccc1`, the “AlphaScreen HuR-RNA complex signal Z-score” value was 1.33.
Take `COc1c(O)cc2c(-c3ccccc3)cc(=O)oc2c1OC`: the “AlphaScreen HuR-RNA complex signal Z-score” value was -4.89.
The figure for `CC(=O)O[C@H]1CC[C@]2(C)C3=C(CC[C@H]2C1(C)C)[C@]1(C)CC[C@H]([C@H](C)CCC=C(C)C)[C@@]1(C)CC3` is 1.79.
The figure for `CN1CCN(C2=Nc3cc(Cl)ccc3Nc3ccccc32)CC1` is -0.159; for `Clc1ccc(COC(Cn2ccnc2)c2ccc(Cl)cc2Cl)c(Cl)c1` (stereo not given) it is 4.64.
The figure for `Cc1cc(=O)n(-c2ccccc2)n1C` is 0.315; for `NC12CC3CC(CC(C3)C1)C2` it is 0.311.
Turning to `O=c1c2ccccc2oc2ccccc12`, the “AlphaScreen HuR-RNA complex signal Z-score” value amounted to 1.91.
Then `O=C(O)c1cc(O)c2c(c1)[C@@H]([C@H]1c3cc(C(=O)O)cc(O)c3C(=O)c3c(O[C@@H]4O[C@H](CO)[C@@H](O)[C@H](O)[C@H]4O)cccc31)c1cccc(O[C@@H]3O[C@H](CO)[C@@H](O)[C@H](O)[C@H]3O)c1C2=O`, with 3.1; and `N=C1C=CC(=C(c2ccc(N)cc2)c2ccc(N)cc2)C=C1`, with 1.08; and `C=CC(C)(O)CCC1C(=C)CC(O)C2C(C)(C)CCCC12C` (stereo not given), with 0.457.
The figure for `CC(=O)N(O)CCCCCNC(=O)CCC(=O)N(O)CCCCCNC(=O)CCC(=O)N(O)CCCCCN` is -6.25; for `CC(C)/N=c1\cc2n(-c3ccc(Cl)cc3)c3ccccc3nc-2cc1Nc1ccc(Cl)cc1` it is 1.17.
With `CCNC(=O)CC[C@H](N)C(=O)O`, the “AlphaScreen HuR-RNA complex signal Z-score” value amounted to 1.93.
With `NCCCCNCCCN`, the “AlphaScreen HuR-RNA complex signal Z-score” value came out at 1.84.
For the compound `CN1CC(=O)NC1=N`, the “AlphaScreen HuR-RNA complex signal Z-score” value is -0.173.
The figure for `CCC(NC(C)C)C(O)c1ccc(O)c(O)c1` (stereo not given) is 2.27; for `CCC(Cc1c(I)cc(I)c(N)c1I)C(=O)O` (stereo not given) it is 1.31.
Turning to `CN1CCc2cccc3c2[C@H]1Cc1ccc(O)c(O)c1-3`, the “AlphaScreen HuR-RNA complex signal Z-score” value was 0.412.
In the case of `O=C1C=C2CC3(O)COc4c(ccc(O)c4O)C3=C2C=C1O` (stereo not given), the “AlphaScreen HuR-RNA complex signal Z-score” value turned out to be 1.27.
As for `C[C@]12CC[C@@H]3c4ccc(O)cc4CC[C@H]3[C@@H]1CC[C@@H]2OC(=O)CCC1CCCC1`, the “AlphaScreen HuR-RNA complex signal Z-score” value is -1.83.
As for `CO[C@@]1(NC(=O)CSCC#N)C(=O)N2C(C(=O)O)=C(CSc3nnnn3C)CS[C@@H]21`, the “AlphaScreen HuR-RNA complex signal Z-score” value was 0.258.
Then `C[C@@H]1[C@H](O)[C@@H](C)/C=C/C=C/C=C/C=C/C=C/C=C/C=C/[C@H](O[C@@H]2O[C@H](C)[C@@H](O)[C@H](N)[C@@H]2O)C[C@@H]2O[C@](O)(C[C@@H](O)C[C@@H](O)[C@H](O)CC[C@@H](O)C[C@@H](O)CC(=O)O[C@H]1C)C[C@H](O)[C@H]2C(=O)O`, with 0.719.
The figure for `CCOC(=O)C(C)(C)Oc1ccc(Cl)cc1` is 0.088; for `CCN(CCO)CCCC(C)Nc1ccnc2cc(Cl)ccc12` (stereo not given) it is 1.2; for `CON` it is 2.42.
Then `O=c1ccn([C@@H]2O[C@H](COP(=O)(O)OP(=O)(O)OP(=O)(O)O)[C@@H](O)[C@H]2O)c(=O)[nH]1`, with 2.96; and `CN(C)c1ccc(C(=C2C=CC(=[N+](C)C)C=C2)c2ccc(N(C)C)cc2)cc1`, with -5.07.
Consider `CC(=O)[C@H]1CC[C@H]2[C@@H]3CC=C4C[C@@H](O)CC[C@]4(C)[C@H]3CC[C@]12C`, for which the “AlphaScreen HuR-RNA complex signal Z-score” value stood at 2.03.
Then `CC12CCCC(O)(C1)C1CC(C)(C)C1CC2` (stereo not drawn) [beta-CARYOPHYLLENE ALCOHOL], with 3.95.
The figure for `CC(C)(C)c1ccc(C(O)CCCN2CCC(C(O)(c3ccccc3)c3ccccc3)CC2)cc1` (stereo not given) is -0.00224.
Then `CC(COc1ccccc1)NC(C)C(O)c1ccc(O)cc1` (stereo not given), with -5.37; and `Cc1cc(=O)oc2c(O)c(O)ccc12`, with 1.19.
For the compound `CC1(C)[C@@H](O)CC[C@]2(C)[C@H]3C(=O)C=C4[C@H]5C[C@@](C)(C(=O)O)CC[C@]5(C)CC[C@@]4(C)[C@]3(C)CC[C@@H]12` [18alpha-GLYCYRRHETINIC ACID], the “AlphaScreen HuR-RNA complex signal Z-score” value came out at 0.792.
As for `CCCCN1CCCCC1C(=O)Nc1c(C)cccc1C` (stereo not given), the “AlphaScreen HuR-RNA complex signal Z-score” value is 1.63.
Then `CCOC(=O)NNc1nncc2ccccc12`, with 2.29.
As to `CC(=O)c1c(O)cc(O)cc1O`, the “AlphaScreen HuR-RNA complex signal Z-score” value worked out at 2.7.
Then `CC(=O)O[C@@H]1CC2C(C)(CC[C@H](O)C2(C)C)C2CC[C@]3(C)C(=CC(=O)O[C@H]3c3ccoc3)C21C` (stereo partly drawn) [3beta-HYDROXYDEOXODIHYDRODEOXYGEDUNIN], with 1.07.
The figure for `CC(=O)N[C@@H](C=O)[C@@H](O)[C@H](O)[C@H](O)CO` is 0.752; for `Nc1ccc(S(=O)(=O)Nc2ccccn2)cc1` it is 2.16; for `CO[C@H]1C[C@H](O[C@H]2[C@H](C)[C@@H](O[C@@H]3O[C@H](C)C[C@H](N(C)C)[C@H]3O)[C@@H](C)C[C@@]3(CO3)C(=O)[C@H](C)[C@@H](O)[C@@H](C)[C@@H](C)OC(=O)[C@@H]2C)O[C@@H](C)[C@@H]1O` it is -0.475.
The figure for `OC[C@H]1O[C@H](OCC2O[C@@H](O)[C@H](O)[C@@H](O)[C@@H]2O)[C@H](O)[C@@H](O)[C@H]1O` (stereo not given in full) is 1.42.

(Values after the supplement of paper PMC3741180, “A Novel High Throughput Biochemical Assay to Evaluate the HuR Protein-RNA Complex Formation” (PLoS ONE, 2013).)
